Data as given in PubChem BioAssay AID652243 (Drosophila RNAi Screening Center, 2013)

Screen: 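Fly regulators of androgen-dependent reporter output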 (primary screen)
Cells: Drosophila S2R+ cells
Reagents: long dsRNA against Drosophila genes
Duration: 72 h (48 h, then 24 h hormone)
Treatment: synthetic androgen R1881 at 10 nM for 24 h
Detection: 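Per-well raw luminescence of the androgen-driven firefly reporter and of the Renilla control, two replicates each, without normalisation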
Direction: firefly reporter light: higher = more light from androgen-responsive reporter; Renilla control light: higher = more constitutive control signal (cell number, transfection)
Active means: 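Across duplicate plates, a knock-down whose log firefly/Renilla ratio shifted a set fold down or up from the GFP/LacZ control mean was a hit; the downward cut appears as both 1.5 and 3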
Calls: active = hit: reporter lowered or raised; inactive = no hit
In all, the deposit lists about 24,000 reagents; below is a random part of those that have a named target and a result. In the full data, 246 (1%) were called active. 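Plates not normalised; calls are printed but the firefly/Renilla ratio behind them is not deposited; fold cut for lowering reported inconsistently.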 Raw values are not corrected between plates. A number with no mark means an inactive call. The record does not give: the amount of reagent.

CG14628 [DRSC18626] — firefly reporter light, replicate 1 = 3.32e5; firefly reporter light, replicate 2 = 2.74e5; Renilla control light, replicate 1 = 3.58e6; Renilla control light, replicate 2 = 2.86e6
CG31538 [DRSC12059] — firefly reporter light, replicate 1 = 67705; firefly reporter light, replicate 2 = 2.22e5; Renilla control light, replicate 1 = 2.82e5; Renilla control light, replicate 2 = 5.63e5
GluRIID [DRSC16723] — firefly reporter light, replicate 1 = 3.74e5; firefly reporter light, replicate 2 = 3.38e5; Renilla control light, replicate 1 = 2.45e6; Renilla control light, replicate 2 = 3.33e6
GluRIID [DRSC24866] — firefly reporter light, replicate 1 = 4.96e5; firefly reporter light, replicate 2 = 3.97e5; Renilla control light, replicate 1 = 4.40e5; Renilla control light, replicate 2 = 4.92e5
Ir64a [DRSC09759] — firefly reporter light, replicate 1 = 37034; firefly reporter light, replicate 2 = 49972; Renilla control light, replicate 1 = 9.36e5; Renilla control light, replicate 2 = 1.32e6
Ir64a [DRSC09760] — firefly reporter light, replicate 1 = 1.51e5; firefly reporter light, replicate 2 = 1.45e5; Renilla control light, replicate 1 = 1.60e6; Renilla control light, replicate 2 = 1.29e6

2 of these entries, reformatted.
{"Target gene": "GluRIID", "amplicon": "DRSC16723", "firefly reporter light, replicate 1": 3.74e5, "firefly reporter light, replicate 2": 3.38e5, "Renilla control light, replicate 1": 2.45e6, "Renilla control light, replicate 2": 3.33e6}
{"Target gene": "GluRIID", "amplicon": "DRSC24866", "firefly reporter light, replicate 1": 4.96e5, "firefly reporter light, replicate 2": 3.97e5, "Renilla control light, replicate 1": 4.40e5, "Renilla control light, replicate 2": 4.92e5}

Continued:
Mnt [DRSC17894] — firefly reporter light, replicate 1 = 30670 (active); firefly reporter light, replicate 2 = 33321; Renilla control light, replicate 1 = 7.75e5; Renilla control light, replicate 2 = 4.42e5
Mnt [DRSC18480] — firefly reporter light, replicate 1 = 1.84e5; firefly reporter light, replicate 2 = 2.71e5; Renilla control light, replicate 1 = 3.46e6; Renilla control light, replicate 2 = 2.91e6
CG1513 [DRSC05194] — firefly reporter light, replicate 1 = 1.53e5; firefly reporter light, replicate 2 = 1.78e5; Renilla control light, replicate 1 = 1.61e5; Renilla control light, replicate 2 = 1.90e5
CG1513 [DRSC06553] — firefly reporter light, replicate 1 = 2.01e5 (active); firefly reporter light, replicate 2 = 2.83e5; Renilla control light, replicate 1 = 3.65e6; Renilla control light, replicate 2 = 4.51e6
CG1513 [DRSC06554] — firefly reporter light, replicate 1 = 3.95e5; firefly reporter light, replicate 2 = 2.71e5; Renilla control light, replicate 1 = 2.65e6; Renilla control light, replicate 2 = 2.29e6
CG13068 [DRSC09951] — firefly reporter light, replicate 1 = 2.31e5; firefly reporter light, replicate 2 = 2.05e5; Renilla control light, replicate 1 = 3.72e6; Renilla control light, replicate 2 = 2.82e6
CG13068 [DRSC27150] — firefly reporter light, replicate 1 = 2.81e5; firefly reporter light, replicate 2 = 2.39e5; Renilla control light, replicate 1 = 6.19e5; Renilla control light, replicate 2 = 6.86e5
Vha100-2 [DRSC14152] — firefly reporter light, replicate 1 = 1.34e5; firefly reporter light, replicate 2 = 93925; Renilla control light, replicate 1 = 8.97e5; Renilla control light, replicate 2 = 6.58e5
Vha100-2 [DRSC29227] — firefly reporter light, replicate 1 = 5.13e5; firefly reporter light, replicate 2 = 4.51e5; Renilla control light, replicate 1 = 1.19e6; Renilla control light, replicate 2 = 9.72e5
